Assay: ThT and Congo-red staining of fibrils
Type: physicochemical
Conditions: 30 min

For GNNQQNY [GNNQQNY fibers], the “Congo-red staining of fibrils” value (Congo-red 1 mg/mL, microscopy) was “apple-green birefringence” and the “ThT staining of fibrils” value (ThT 0.8 mg/mL, fluorescence microscopy) was “yellow-green fluorescence”.

Source: paper doi:10.1101/2022.01.01.474692v1 (bioRxiv, 2022)
